Assay results from article PMC5641126.
No constants are given. Whether binding was seen depends on the method and setting. Binding seen in cells or lysates may run through a third protein. Some results given as binding are weak or reduced against the parent protein; the word gives no strength. For part of these data: Sequences can lack the tags named with a protein. One block for each molecule: values may come before it.

Amino acid sequences for entries named in this document (tags omitted).
UniProt Q04724: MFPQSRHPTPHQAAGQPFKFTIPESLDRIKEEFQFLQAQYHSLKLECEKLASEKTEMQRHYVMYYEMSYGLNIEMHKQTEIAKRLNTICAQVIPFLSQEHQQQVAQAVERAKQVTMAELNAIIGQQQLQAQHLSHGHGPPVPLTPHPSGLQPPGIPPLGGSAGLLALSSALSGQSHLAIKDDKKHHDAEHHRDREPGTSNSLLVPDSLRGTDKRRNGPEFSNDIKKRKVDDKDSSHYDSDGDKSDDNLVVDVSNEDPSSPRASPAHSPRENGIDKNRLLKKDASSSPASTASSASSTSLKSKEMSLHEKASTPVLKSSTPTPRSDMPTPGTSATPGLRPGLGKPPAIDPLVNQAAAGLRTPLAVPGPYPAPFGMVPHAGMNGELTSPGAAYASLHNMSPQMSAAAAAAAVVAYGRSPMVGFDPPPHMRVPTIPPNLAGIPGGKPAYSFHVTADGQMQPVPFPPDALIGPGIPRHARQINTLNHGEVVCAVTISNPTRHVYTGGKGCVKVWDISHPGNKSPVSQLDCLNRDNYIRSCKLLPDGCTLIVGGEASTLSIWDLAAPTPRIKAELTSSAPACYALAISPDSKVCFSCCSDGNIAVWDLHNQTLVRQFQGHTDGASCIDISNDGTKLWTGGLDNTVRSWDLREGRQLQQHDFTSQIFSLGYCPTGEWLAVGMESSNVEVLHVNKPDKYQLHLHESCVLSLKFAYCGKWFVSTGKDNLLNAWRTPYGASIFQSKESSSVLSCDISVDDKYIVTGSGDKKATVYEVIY

How the values were obtained:
[1] = target: T1, ZEB1 transcription factor, endogenous (human (endogenous in A549)) (UniProt P37275); assay: co-IP; A549 cell extracts in 1% NP-40 lysis buffer (20 mM Tris-HCl pH 7.4, 150 mM NaCl, 10% glycerol); endogenous proteins immunoprecipitated with anti-TLE1, anti-ZEB1 or non-specific IgG, blotted with anti-TLE1 or anti-ZEB1
T1 sequence: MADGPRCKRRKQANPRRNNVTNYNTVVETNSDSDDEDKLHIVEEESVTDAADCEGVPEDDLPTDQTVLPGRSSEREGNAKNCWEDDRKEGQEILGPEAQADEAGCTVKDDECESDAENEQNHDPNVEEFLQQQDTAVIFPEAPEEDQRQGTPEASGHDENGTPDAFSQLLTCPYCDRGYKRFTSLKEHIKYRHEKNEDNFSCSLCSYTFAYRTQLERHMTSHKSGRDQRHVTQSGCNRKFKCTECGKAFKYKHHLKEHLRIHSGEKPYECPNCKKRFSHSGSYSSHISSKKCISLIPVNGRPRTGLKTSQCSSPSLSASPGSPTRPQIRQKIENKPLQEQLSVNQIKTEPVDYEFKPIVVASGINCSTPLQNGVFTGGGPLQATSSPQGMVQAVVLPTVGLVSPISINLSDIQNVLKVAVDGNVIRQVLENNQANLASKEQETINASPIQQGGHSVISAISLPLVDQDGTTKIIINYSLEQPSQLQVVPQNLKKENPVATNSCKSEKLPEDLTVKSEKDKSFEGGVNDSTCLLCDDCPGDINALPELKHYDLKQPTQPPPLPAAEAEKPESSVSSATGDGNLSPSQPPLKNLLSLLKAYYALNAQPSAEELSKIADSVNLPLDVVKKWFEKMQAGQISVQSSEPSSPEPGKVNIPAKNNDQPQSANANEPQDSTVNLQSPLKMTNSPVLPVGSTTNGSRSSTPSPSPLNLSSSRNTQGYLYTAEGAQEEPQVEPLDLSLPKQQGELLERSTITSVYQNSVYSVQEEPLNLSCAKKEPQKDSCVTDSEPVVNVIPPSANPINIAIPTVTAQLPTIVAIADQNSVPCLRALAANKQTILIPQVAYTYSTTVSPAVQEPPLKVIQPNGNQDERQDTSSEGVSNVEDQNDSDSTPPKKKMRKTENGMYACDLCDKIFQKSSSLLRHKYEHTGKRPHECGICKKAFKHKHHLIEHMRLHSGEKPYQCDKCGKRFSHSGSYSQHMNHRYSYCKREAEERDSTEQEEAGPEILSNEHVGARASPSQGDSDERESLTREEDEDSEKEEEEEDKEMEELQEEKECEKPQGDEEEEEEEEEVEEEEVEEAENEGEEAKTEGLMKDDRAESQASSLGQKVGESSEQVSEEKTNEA

[2] = target: Transducin-like enhancer of split 1 (TLE1), endogenous (human (endogenous in A549)) (UniProt Q04724); assay: as above
[3] = target: GFP-TLE1 (UniProt Q04724); assay: co-IP; Control GFP and GFP-TLE1 A549 cells transfected with Myc-ZEB1 or empty vector; NP-40 lysate; GFP-TLE1 immunoprecipitated with anti-GFP-agarose, blotted with anti-Myc

- binding [1]: binds
Molecule: Transducin-like enhancer of split 1 (TLE1), endogenous (from UniProt Q04724 1-770)

- binding [2]: binds
B1: ZEB1 transcription factor, endogenous (protein, UniProt P37275 1-1124)
chain: MADGPRCKRRKQANPRRNNVTNYNTVVETNSDSDDEDKLHIVEEESVTDAADCEGVPEDDLPTDQTVLPGRSSEREGNAKNCWEDDRKEGQEILGPEAQADEAGCTVKDDECESDAENEQNHDPNVEEFLQQQDTAVIFPEAPEEDQRQGTPEASGHDENGTPDAFSQLLTCPYCDRGYKRFTSLKEHIKYRHEKNEDNFSCSLCSYTFAYRTQLERHMTSHKSGRDQRHVTQSGCNRKFKCTECGKAFKYKHHLKEHLRIHSGEKPYECPNCKKRFSHSGSYSSHISSKKCISLIPVNGRPRTGLKTSQCSSPSLSASPGSPTRPQIRQKIENKPLQEQLSVNQIKTEPVDYEFKPIVVASGINCSTPLQNGVFTGGGPLQATSSPQGMVQAVVLPTVGLVSPISINLSDIQNVLKVAVDGNVIRQVLENNQANLASKEQETINASPIQQGGHSVISAISLPLVDQDGTTKIIINYSLEQPSQLQVVPQNLKKENPVATNSCKSEKLPEDLTVKSEKDKSFEGGVNDSTCLLCDDCPGDINALPELKHYDLKQPTQPPPLPAAEAEKPESSVSSATGDGNLSPSQPPLKNLLSLLKAYYALNAQPSAEELSKIADSVNLPLDVVKKWFEKMQAGQISVQSSEPSSPEPGKVNIPAKNNDQPQSANANEPQDSTVNLQSPLKMTNSPVLPVGSTTNGSRSSTPSPSPLNLSSSRNTQGYLYTAEGAQEEPQVEPLDLSLPKQQGELLERSTITSVYQNSVYSVQEEPLNLSCAKKEPQKDSCVTDSEPVVNVIPPSANPINIAIPTVTAQLPTIVAIADQNSVPCLRALAANKQTILIPQVAYTYSTTVSPAVQEPPLKVIQPNGNQDERQDTSSEGVSNVEDQNDSDSTPPKKKMRKTENGMYACDLCDKIFQKSSSLLRHKYEHTGKRPHECGICKKAFKHKHHLIEHMRLHSGEKPYQCDKCGKRFSHSGSYSQHMNHRYSYCKREAEERDSTEQEEAGPEILSNEHVGARASPSQGDSDERESLTREEDEDSEKEEEEEDKEMEELQEEKECEKPQGDEEEEEEEEEVEEEEVEEAENEGEEAKTEGLMKDDRAESQASSLGQKVGESSEQVSEEKTNEA

- binding [3]: binds
B2: Myc-tagged ZEB1 (protein, UniProt P37275 1-1124)
chain: MADGPRCKRRKQANPRRNNVTNYNTVVETNSDSDDEDKLHIVEEESVTDAADCEGVPEDDLPTDQTVLPGRSSEREGNAKNCWEDDRKEGQEILGPEAQADEAGCTVKDDECESDAENEQNHDPNVEEFLQQQDTAVIFPEAPEEDQRQGTPEASGHDENGTPDAFSQLLTCPYCDRGYKRFTSLKEHIKYRHEKNEDNFSCSLCSYTFAYRTQLERHMTSHKSGRDQRHVTQSGCNRKFKCTECGKAFKYKHHLKEHLRIHSGEKPYECPNCKKRFSHSGSYSSHISSKKCISLIPVNGRPRTGLKTSQCSSPSLSASPGSPTRPQIRQKIENKPLQEQLSVNQIKTEPVDYEFKPIVVASGINCSTPLQNGVFTGGGPLQATSSPQGMVQAVVLPTVGLVSPISINLSDIQNVLKVAVDGNVIRQVLENNQANLASKEQETINASPIQQGGHSVISAISLPLVDQDGTTKIIINYSLEQPSQLQVVPQNLKKENPVATNSCKSEKLPEDLTVKSEKDKSFEGGVNDSTCLLCDDCPGDINALPELKHYDLKQPTQPPPLPAAEAEKPESSVSSATGDGNLSPSQPPLKNLLSLLKAYYALNAQPSAEELSKIADSVNLPLDVVKKWFEKMQAGQISVQSSEPSSPEPGKVNIPAKNNDQPQSANANEPQDSTVNLQSPLKMTNSPVLPVGSTTNGSRSSTPSPSPLNLSSSRNTQGYLYTAEGAQEEPQVEPLDLSLPKQQGELLERSTITSVYQNSVYSVQEEPLNLSCAKKEPQKDSCVTDSEPVVNVIPPSANPINIAIPTVTAQLPTIVAIADQNSVPCLRALAANKQTILIPQVAYTYSTTVSPAVQEPPLKVIQPNGNQDERQDTSSEGVSNVEDQNDSDSTPPKKKMRKTENGMYACDLCDKIFQKSSSLLRHKYEHTGKRPHECGICKKAFKHKHHLIEHMRLHSGEKPYQCDKCGKRFSHSGSYSQHMNHRYSYCKREAEERDSTEQEEAGPEILSNEHVGARASPSQGDSDERESLTREEDEDSEKEEEEEDKEMEELQEEKECEKPQGDEEEEEEEEEVEEEEVEEAENEGEEAKTEGLMKDDRAESQASSLGQKVGESSEQVSEEKTNEA
